Reference: the RNAGym collection of RNA variant scans (doi:10.1126/science.aae0568)
Variants at the floor of the assay are shown more often than the library holds them.

B1: tRNA (parent)
chain: GUUCCGUUGGCGUAAUGGUAACGCGUCUCCCUCCUAAGGAGAAGACUGCGGGUUCGAGUCCCGUACGGAACG

Variants of: B1
Assay: yeast fitness relative to wild type (ratio to wild type); higher = fitter; tRNA-Arg(CCU), competitive growth, 37 C, YPD
Summary of the method: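 Genotype frequency changes were the basis for Darwinian fitness relative to wild type. The frequencies came from 100-nucleotide paired-end sequencing of gene amplicons from the start population and each end population of pooled yeast strains with tRNA-Arg(CCU) gene variants at the native locus. Competition ran in YPD at 37°C for 24 hours in six replicates, genotypes needed ≥ 100 starting reads, and estimates < 0.5 were set to 0.5.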

| Variant | yeast fitness |
| --- | --- |
| A37C G39C C55U C61A | 0.532 |
| A37C G56A U59A | ≤ 0.5 |
| A37C U64G | 0.684 |
| A37G A45U C62U G68C | ≤ 0.5 |
| A37G A57G | 0.87 |
| A37G C49G C55U G56C G68A | ≤ 0.5 |
| A37G G51C | 0.601 |
| A37G U53A A57C | ≤ 0.5 |
| A37U C60U C62G U64A A69U | ≤ 0.5 |
| A37U G44A C66A | ≤ 0.5 |
| G38A A45C U64C | ≤ 0.5 |
| G38A C60U | 0.831 |
| G38A C66G A69U | ≤ 0.5 |
| G38A G50C A57G | ≤ 0.5 |
| G39A G51C C62A A70U | ≤ 0.5 |
| G39C A42C C62U A69C | ≤ 0.5 |
| G39C C49G C66U | ≤ 0.5 |
| G39C C62A C66U | ≤ 0.5 |
| G39C G48C A69C | 0.57 |
| A40C A42C A43G | ≤ 0.5 |
| A40C A45G G63A G68A | ≤ 0.5 |
| A40C C55U A65C | ≤ 0.5 |
| A40C U59G C60G | ≤ 0.5 |
| A40G G51C G58A | ≤ 0.5 |
| A40G G68A | 0.953 |
| A40U A43C C62U G68A | ≤ 0.5 |

| Variant | yeast fitness |
| --- | --- |
| A40U C60A | 0.604 |
| A40U C61U | 0.783 |
| A40U U53A C61U | ≤ 0.5 |
| A40U U53C G56A | ≤ 0.5 |
| G41A A45C A65U | ≤ 0.5 |
| G41A A45C A65U A69C | ≤ 0.5 |
| G41A G44A U53A C66U | ≤ 0.5 |
| G41A G48C C49U A57C A70U | ≤ 0.5 |
| G41A G48C G52A | ≤ 0.5 |
| G41C C49U G68C | ≤ 0.5 |
| G41C C62G | 0.597 |
| G41C G48C C55G A69U | ≤ 0.5 |
| A42C A45C G48A | 0.958 |
| A42C A45C G48A A65G | 0.671 |
| A42C A45U C46G G58C A70U | ≤ 0.5 |
| A42C C46A A57U | ≤ 0.5 |
| A42C G48A G50A C61G | 0.553 |
| A42C G56A | 1.01 |
| A42C G63C G67A | ≤ 0.5 |
| A42C U59A A69U | 0.528 |
| A42G A43G U64A G68C | ≤ 0.5 |
| A42G A69C | 0.95 |
| A42G U59C C61U | 0.502 |
| A42U C55U U59C G63A A65C | ≤ 0.5 |
| A42U C60U C61G | ≤ 0.5 |
| A42U G52C | 0.694 |

| Variant | yeast fitness |
| --- | --- |
| A43C A70G | 1.05 |
| A43C C49A | 0.631 |
| A43C U64G | 0.618 |
| A43G C49U C60A C62A | ≤ 0.5 |
| A43G G51A G52A A69C | ≤ 0.5 |
| A43G G56A | 0.86 |
| A43G G56C G58A | ≤ 0.5 |
| A43U A57G C61U | ≤ 0.5 |
| A43U C46A A69C | 0.734 |
| A43U U47C C55A | ≤ 0.5 |
| G44A C49A U59A | ≤ 0.5 |
| G44A G48A G50C | ≤ 0.5 |
| G44C C46U G48A C61G | ≤ 0.5 |
| G44C G52A | 0.833 |
| A45C C60G G67A | ≤ 0.5 |
| A45C C62G A65U | ≤ 0.5 |
| A45C G51C U64C | ≤ 0.5 |
| A45G C62A A69C | 0.595 |
| A45G U59C | 1.03 |
| A45U C46U C49U G50C C61U | ≤ 0.5 |
| A45U C66A | 0.649 |
| A45U U59G | 0.66 |
| C46G C60G C66U | ≤ 0.5 |
| C46G G50C C61A | ≤ 0.5 |
| C46G G51C U53A | ≤ 0.5 |
| C46G G67A | 0.912 |

| Variant | yeast fitness |
| --- | --- |
| C46G U59G C61G | ≤ 0.5 |
| C46U C66U | 1.02 |
| C46U G68A | 0.9 |
| U47A C62U | 0.842 |
| U47A G48A A70U | 0.748 |
| U47C A57G C62U | ≤ 0.5 |
| U47C G48C A65C | 0.619 |
| U47C G58C | 0.971 |
| U47C U64G G68C | ≤ 0.5 |
| G48A G51A A69U | 0.755 |
| G48C C61A G63C | ≤ 0.5 |
| C49A A57C A65G | ≤ 0.5 |
| C49A C55G | ≤ 0.5 |
| C49G U53C C55A C61U U64G | ≤ 0.5 |
| C49U U54A G68C | ≤ 0.5 |
| G50A C55U G68U | ≤ 0.5 |
| G50A G52A U59C C66U | ≤ 0.5 |
| G50A U53A C61U | 0.532 |
| G50A U59A G67C | ≤ 0.5 |
| G50C C55A A57C | 0.559 |
| G51A A69C | 0.979 |
| G51A G63U C66A | ≤ 0.5 |
| G51C C61U | 0.604 |
| G51C G52A U59G | ≤ 0.5 |
| G52A A57C A65C | 0.647 |
| G52A C55G A57U | ≤ 0.5 |

| Variant | yeast fitness |
| --- | --- |
| G52A G58A G63A | ≤ 0.5 |
| U53A C60G G67A A70C | ≤ 0.5 |
| U53C A57C G67C | ≤ 0.5 |
| U53G C62U A70G | ≤ 0.5 |
| U54A C62G | 0.637 |
| U54C C55A | 0.635 |
| U54C C55G C60G C62A | ≤ 0.5 |
| U54G A57C | ≤ 0.5 |
| C55G C60G | ≤ 0.5 |
| C55G U64C A65C | ≤ 0.5 |
| C55U G58A C61G A70U | ≤ 0.5 |
| G56A U59C A65C | 0.738 |
| A57C C60G | 0.503 |
| A57C C61G | ≤ 0.5 |
| A57C G67C | 0.707 |
| A57G A69C | 0.799 |
| A57U A65C C66G | ≤ 0.5 |
| A57U G68U A70G | ≤ 0.5 |
| G58A C60U C62A | 0.552 |
| U59G A65G | 0.965 |
| C61G C62G A70C | 0.512 |
| C61U A65U | 0.724 |
| C62U G63C A70C | ≤ 0.5 |
| U64C G68C | 0.978 |
| C66A A70G | 0.764 |
| C66G | 0.902 |
